Test results published in patent US12569503B2, “Methods and compositions for substituted axially-chiral cannabinol analogs” (University of Florida Research Foundation, Inc., priority 2019, dated 2026).

System: C57bl/6j mice
Assay: Reduction of body temperature (hypothermia)
Conditions: ratio of ED50 values; for Potency Ratio (Temp./Allodynia): Table 1; for Potency Ratio (Temp/Allodynia): Table 4

Molecule	Potency Ratio (Temp./Allodynia)	Potency Ratio (Temp/Allodynia)
10-methyl-CBN [ax-CBN]	1.9	2.01
CCCCCc1cc(O)c2c(c1)OC(C)(C)[C@@H]1CCC(C)=C[C@@H]21 [THC, (−)-trans-Δ^9-tetrahydrocannabinol]	0.7	0.58
